Laboratory results as given in PMC4360946.
Results are given in words; binding and its absence hold for the method and conditions named. Binding seen in cells or lysates may run through a third protein. Some entries that bind do so weakly or less than the wild type. Sequences can lack the tags named with a protein. Values belong to the molecule of their own block, whether it stands above or below them.

Amino acid sequences for entries named in this document (tags omitted).
UniProt Q8VBX6: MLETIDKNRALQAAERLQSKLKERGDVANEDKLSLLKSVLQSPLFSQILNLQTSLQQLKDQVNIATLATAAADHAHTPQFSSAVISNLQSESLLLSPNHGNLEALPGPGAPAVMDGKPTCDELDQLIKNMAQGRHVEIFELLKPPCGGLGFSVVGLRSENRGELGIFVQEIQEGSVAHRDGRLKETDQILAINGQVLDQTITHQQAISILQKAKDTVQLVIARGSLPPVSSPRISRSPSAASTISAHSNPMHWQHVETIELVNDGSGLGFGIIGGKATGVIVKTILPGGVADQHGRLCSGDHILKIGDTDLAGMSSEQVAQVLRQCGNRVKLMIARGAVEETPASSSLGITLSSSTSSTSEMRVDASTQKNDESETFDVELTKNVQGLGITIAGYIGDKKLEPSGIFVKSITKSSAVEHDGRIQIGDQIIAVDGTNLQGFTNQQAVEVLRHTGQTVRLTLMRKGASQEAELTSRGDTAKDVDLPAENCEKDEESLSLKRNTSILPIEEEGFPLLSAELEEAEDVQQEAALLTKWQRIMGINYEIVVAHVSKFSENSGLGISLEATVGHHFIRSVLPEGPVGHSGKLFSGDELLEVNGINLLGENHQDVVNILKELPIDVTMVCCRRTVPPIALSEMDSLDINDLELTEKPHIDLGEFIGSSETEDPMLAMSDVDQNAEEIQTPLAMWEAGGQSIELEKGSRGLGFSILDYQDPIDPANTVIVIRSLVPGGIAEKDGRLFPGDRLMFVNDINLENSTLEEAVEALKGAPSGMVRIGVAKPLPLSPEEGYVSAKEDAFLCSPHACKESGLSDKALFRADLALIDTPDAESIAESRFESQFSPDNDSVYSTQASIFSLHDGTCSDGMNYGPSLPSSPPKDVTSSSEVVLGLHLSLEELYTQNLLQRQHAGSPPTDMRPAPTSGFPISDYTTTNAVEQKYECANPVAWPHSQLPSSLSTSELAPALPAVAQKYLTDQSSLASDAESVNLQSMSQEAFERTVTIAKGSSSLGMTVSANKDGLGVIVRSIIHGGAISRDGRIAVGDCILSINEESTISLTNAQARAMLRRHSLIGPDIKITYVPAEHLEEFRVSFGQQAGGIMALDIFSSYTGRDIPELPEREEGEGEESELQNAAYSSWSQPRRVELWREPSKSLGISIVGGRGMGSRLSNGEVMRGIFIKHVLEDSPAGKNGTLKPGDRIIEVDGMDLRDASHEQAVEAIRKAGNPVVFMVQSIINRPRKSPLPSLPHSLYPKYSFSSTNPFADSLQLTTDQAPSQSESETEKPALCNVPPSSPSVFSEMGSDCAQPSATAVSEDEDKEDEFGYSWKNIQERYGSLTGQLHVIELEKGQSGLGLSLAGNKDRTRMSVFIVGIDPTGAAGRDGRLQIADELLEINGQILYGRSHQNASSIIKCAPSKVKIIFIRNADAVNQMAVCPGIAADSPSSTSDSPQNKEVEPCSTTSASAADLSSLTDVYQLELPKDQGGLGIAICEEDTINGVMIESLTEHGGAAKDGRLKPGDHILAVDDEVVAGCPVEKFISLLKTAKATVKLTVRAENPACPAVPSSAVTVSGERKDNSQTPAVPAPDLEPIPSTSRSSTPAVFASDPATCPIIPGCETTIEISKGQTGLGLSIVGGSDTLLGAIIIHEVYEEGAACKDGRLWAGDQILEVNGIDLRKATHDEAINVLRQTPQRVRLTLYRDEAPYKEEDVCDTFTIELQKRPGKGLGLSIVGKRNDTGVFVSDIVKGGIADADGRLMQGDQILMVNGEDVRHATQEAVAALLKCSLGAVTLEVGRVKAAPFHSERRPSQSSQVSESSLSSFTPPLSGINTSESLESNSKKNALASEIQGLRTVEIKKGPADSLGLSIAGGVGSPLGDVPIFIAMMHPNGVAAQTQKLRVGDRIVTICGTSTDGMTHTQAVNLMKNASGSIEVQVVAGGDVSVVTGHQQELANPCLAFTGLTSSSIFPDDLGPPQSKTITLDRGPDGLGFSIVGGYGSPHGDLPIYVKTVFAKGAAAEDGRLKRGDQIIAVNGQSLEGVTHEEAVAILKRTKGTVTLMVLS

What was measured:
[1] = molecular target: T1, GST-GPR85-C (C-terminal sequence of GPR85, …, fused to glutathione S-transferase) (human); assay: pull-down; GST fusion protein bound to Glutathione Sepharose beads, incubated with lysates of COS cells transfected with GFP-tagged proteins for 2 h at 4°C; washed three times with lysis buffer; eluted with 20 mM reduced glutathione; immunoblot with anti-GFP; only the target purified
T1 sequence: SRLPREPYCVI

[2] = molecular target: T1, GST-GPR85-C (C-terminal sequence of GPR85, …, fused to glutathione S-transferase) (human); assay: pull-down; GST fusion protein bound to Glutathione Sepharose beads, incubated with mouse brain lysate for 2 h at 4°C; washed three times with lysis buffer; eluted with 20 mM reduced glutathione in 50 mM Tris-HCl pH 8.0; immunoblot with specific antibodies; only the target purified
[3] = molecular target: T1, GST-GPR85-C (C-terminal sequence of GPR85, …, fused to glutathione S-transferase) (human); assay: pull-down; GST fusion protein bound to Glutathione Sepharose beads, incubated with lysates of COS cells transfected with GFP-tagged proteins for 2 h at 4°C; washed three times with lysis buffer; eluted with 20 mM reduced glutathione; immunoblot with anti-GFP; only the target purified; remark: listed apart in the source

binding [1]: no binding
Molecule: GFP-Mupp-1 (from UniProt Q8VBX6 1-2055)

binding [2]: no binding
Molecule: Mupp1, in mouse brain extract (from UniProt Q8VBX6 1-2055)

binding [2]: binds
B1: SAP102, in mouse brain extract (protein, UniProt P70175 1-849)
chain: MHKHQHCCKCPECYEVTRLAALRRLEPPGYGDWQVPDPYGPSGGNGASSGYGGYSSQTLPSQAGATPTPRTKAKLIPTGRDVGPVPPKPVPGKSTPKLNGSGPGWWPECTCTNRDWYEQASPAPLLVNPEALEPSLSVNGSDGMFKYEEIVLERGNSGLGFSIAGGIDNPHVPDDPGIFITKIIPGGAAAMDGRLGVNDCVLRVNEVDVSEVVHSRAVEALKEAGPVVRLVVRRRQPPPETIMEVNLLKGPKGLGFSIAGGIGNQHIPGDNSIYITKIIEGGAAQKDGRLQIGDRLLAVNNTNLQDVRHEEAVASLKNTSDMVYLKVAKPGSIHLNDMYAPPDYASTFTALADNHISHNSSLGYLGAVESKVTYPAPPQVPPTRYSPIPRHMLAEEDFTREPRKIILHKGSTGLGFNIVGGEDGEGIFVSFILAGGPADLSGELRRGDRILSVNGVNLRNATHEQAAAALKRAGQSVTIVAQYRPEEYSRFESKIHDLREQMMNSSMSSGSGSLRTSEKRSLYVRALFDYDRTRDSCLPSQGLSFSYGDILHVINASDDEWWQARLVTPHGESEQIGVIPSKKRVEKKERARLKTVKFHARTGMIESNRDFPGLSDDYYGAKNLKGVTSNTSDSESSSKGQEDAILSYEPVTRQEIHYARPVIILGPMKDRVNDDLISEFPHKFGSCVPHTTRPRRDNEVDGQDYHFVVSREQMEKDIQDNKFIEAGQFNDNLYGTSIQSVRAVAERGKHCILDVSGNAIKRLQQAQLYPIAIFIKPKSIEALMEMNRRQTYEQANKIFDKAMKLEQEFGEYFTAIVQGDSLEEIYNKIKQIIEDQSGHYIWVPSPEKL

binding [3]: binds weakly
B2: GFP-SAP102 (protein, UniProt P70175 1-849)
chain: B1 chain
